Results deposited as PubChem BioAssay AID743121 (NCATS, 2013).
The deposit covers about 26,000 reagents; below is a random part of them. 167 of them (0.63%) were called active. 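Calls are per gene from RSA p-values that are not deposited; an individual active-marked siRNA can sensitise only weakly.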 Entries without a mark were called inactive. Reagents against one gene are numbered here.

- Test: 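Genes whose silencing strengthens cell killing by camptothecin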 (primary screen)
- Cell system: MDA-MB-231 cells, a human breast cancer line
- Reagents: single siRNA against human genes, 20 nM siRNA (0.8 pmol per well)
- Timing: 120 h (drug added 48 h after transfection, read 72 h later)
- Treatment: camptothecin 20 nM (about EC30) for 72 h; vehicle 0.1% DMSO in parallel plates
- Detection: 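CellTiter-Glo ATP signal, scaled to control siRNA as percent viability; sensitisation given as log2 of untreated divided by camptothecin-treated viability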
- Reading the numbers: log2 vehicle/camptothecin viability: higher = stronger sensitisation to camptothecin; viability with camptothecin and viability without drug: higher = more viable cells
- Rule for the call: 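Active genes have an RSA gene-level p-value below 0.001, computed from the ratios of their separate siRNAs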

| target gene | siRNA no. | log2 vehicle/camptothecin viability | viability with camptothecin (% of control) | viability without drug (% of control) |
| --- | --- | --- | --- | --- |
| DBH (GeneID 1621) | 1 | 0.112 | 53 | 57.2 |
| DBH (GeneID 1621) | 2 | -0.803 | 27.7 | 15.9 |
| DBH (GeneID 1621) | 3 | -0.136 | 68.3 | 62.2 |
| PSMB3 (GeneID 5691) | 1 | -0.387 | 6.6 | 5.05 |
| PSMB3 (GeneID 5691) | 2 | -0.0273 | 13.7 | 13.5 |
| PSMB3 (GeneID 5691) | 3 | -0.292 | 27.3 | 22.3 |
| GCGR (GeneID 2642) | 1 | -0.389 | 61.5 | 47 |
| GCGR (GeneID 2642) | 2 | -0.334 | 71.8 | 56.9 |
| GCGR (GeneID 2642) | 3 | -0.209 | 93.9 | 81.3 |
| GCGR (GeneID 2642) | 4 | -0.436 | 105 | 77.4 |
| PLIN1 (GeneID 5346) | 1 | -0.051 | 75 | 72.4 |
| PLIN1 (GeneID 5346) | 2 | -0.118 | 59.3 | 54.6 |
| PLIN1 (GeneID 5346) | 3 | -0.172 | 63.9 | 56.8 |
| PLIN1 (GeneID 5346) | 4 | -0.374 | 10.6 | 8.17 |
| EPHA8 (GeneID 2046) | 1 | -0.391 | 86.9 | 66.3 |
| EPHA8 (GeneID 2046) | 2 | 0.076 | 63.8 | 67.3 |
| EPHA8 (GeneID 2046) | 3 | -0.0899 | 93.9 | 88.2 |
| EPHA8 (GeneID 2046) | 4 | -0.306 | 138 | 112 |
| EPHA8 (GeneID 2046) | 5 | 0.254 | 52.1 | 62.1 |
| EPHA8 (GeneID 2046) | 6 | 1.63 | 10.7 | 33 |
| EPHA8 (GeneID 2046) | 7 | -0.241 | 91.5 | 77.4 |
| EPHA8 (GeneID 2046) | 8 | -0.212 | 101 | 87.1 |
| PMPCA (GeneID 23203) | 1 | 0.277 | 78.6 | 95.3 |
| PMPCA (GeneID 23203) | 2 | -0.087 | 99.4 | 93.6 |
| PMPCA (GeneID 23203) | 3 | -0.395 | 87.8 | 66.7 |
| PMPCA (GeneID 23203) | 4 | -0.326 | 91.1 | 72.6 |
| RPS6KA3 (GeneID 6197) | 1 | -0.316 | 57.1 | 45.8 |
| RPS6KA3 (GeneID 6197) | 2 | -0.207 | 84.3 | 73 |
| RPS6KA3 (GeneID 6197) | 3 | -0.183 | 114 | 100 |
| RPS6KA3 (GeneID 6197) | 4 | -0.181 | 58.7 | 51.7 |

Records listed so far whose target name begins with R or r (4):
| target gene | siRNA no. | log2 vehicle/camptothecin viability | viability with camptothecin (% of control) | viability without drug (% of control) |
| --- | --- | --- | --- | --- |
| RPS6KA3 (GeneID 6197) | 1 | -0.316 | 57.1 | 45.8 |
| RPS6KA3 (GeneID 6197) | 2 | -0.207 | 84.3 | 73 |
| RPS6KA3 (GeneID 6197) | 3 | -0.183 | 114 | 100 |
| RPS6KA3 (GeneID 6197) | 4 | -0.181 | 58.7 | 51.7 |
